Results are given in words; binding and its absence hold for the method and conditions named. A result given as binding can be weak or reduced; the word gives no strength. For part of these data: In cells and extracts the contact can be indirect. For part of these data: Sequences can lack the tags named with a protein. Blank lines part the entries; values can stand above or below the molecule they belong to.
Legend:
[1] = biological target: T1, Recombinant full length NANOG, purified and refolded (mouse) (UniProt Q80Z64); assay: native gel or EMSA
T1 sequence: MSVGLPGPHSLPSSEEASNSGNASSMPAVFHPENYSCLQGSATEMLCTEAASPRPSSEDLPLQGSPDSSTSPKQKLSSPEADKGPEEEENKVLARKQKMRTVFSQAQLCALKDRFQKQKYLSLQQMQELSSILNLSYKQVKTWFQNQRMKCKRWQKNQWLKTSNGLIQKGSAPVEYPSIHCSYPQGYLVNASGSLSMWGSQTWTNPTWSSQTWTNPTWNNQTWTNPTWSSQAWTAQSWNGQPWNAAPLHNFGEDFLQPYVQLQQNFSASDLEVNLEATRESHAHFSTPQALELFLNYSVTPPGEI

[2] = biological target: T2, full length His-tagged NANOG (mouse) (UniProt Q80Z64); assay: pull-down
T2 sequence: T1 sequence

[3] = biological target: GST-CTD (C-terminal domain of RNA Polymerase II) (mouse); assay: pull-down

binding [1]: binds
Molecule: Recombinant CTD expressed as a GST-fusion, purified (mouse) (domain or fragment)

binding [2]: binds
Molecule: GST-CTD (C-terminal domain of RNA Polymerase II) (mouse) (domain or fragment)

binding [3]: binds
B1: full length His-tagged NANOG (protein, UniProt Q80Z64 1-305)
chain: T1 sequence

Source: article doi:10.1101/2025.11.27.690710
